According to patent US4668769 (dated 1987):

Test: general procedure: solution-phase peptide synthesis; dicyclohexylcarbodiimide / 1-hydroxybenzotriazole hydrate

Substance | step yield (purification step, recovery of crude material injected) | step yield (coupling step)
BocPhe-N-methylHis-2-N-i-butylazahomocyclohexylStaLysPheNH2 | Approximately 30% | –
BocPhe(N-imBoc)His-2-N-i-propylazahomocyclohexylStaLys(e-CBZ)Phe benzyl ester | – | 51%
BocPheHis(imBoc)-O-benzyl-2-oxahomocyclohexylStaLys(e-CBZ)Phe benzyl ester | – | 69%
BocPheHis(imBoc)-2-N-isobutylazahomocyclohexyl-StaLys(e-CBZ)Phe benzyl ester | – | 44%
